Source: patent publication US8748105B2 (Pepscan Systems B.V., priority 2003, dated 2014)

Experiment: peptide synthesis
Settings: cyclisation step, thioether ring, sequence written open

Substance: Ac-C VYETVRVPGSAGGADSLYTYPVATQC-NH2
- cyclisation yield: >90%

Substance: Ac-CVYETVRVPGSAGGADSLYTYPVATQC-NH2
- cyclisation yield: >90%
